In PMC2702278:
These are yes or no findings as the source states them, for the method shown. In cells and extracts the contact can be indirect. Here binding means that the protein was enriched with, or labelled near, the bait; the list need not be complete.

Chains of the proteins cited; added tags and fusions are not shown.
UniProt Q99700: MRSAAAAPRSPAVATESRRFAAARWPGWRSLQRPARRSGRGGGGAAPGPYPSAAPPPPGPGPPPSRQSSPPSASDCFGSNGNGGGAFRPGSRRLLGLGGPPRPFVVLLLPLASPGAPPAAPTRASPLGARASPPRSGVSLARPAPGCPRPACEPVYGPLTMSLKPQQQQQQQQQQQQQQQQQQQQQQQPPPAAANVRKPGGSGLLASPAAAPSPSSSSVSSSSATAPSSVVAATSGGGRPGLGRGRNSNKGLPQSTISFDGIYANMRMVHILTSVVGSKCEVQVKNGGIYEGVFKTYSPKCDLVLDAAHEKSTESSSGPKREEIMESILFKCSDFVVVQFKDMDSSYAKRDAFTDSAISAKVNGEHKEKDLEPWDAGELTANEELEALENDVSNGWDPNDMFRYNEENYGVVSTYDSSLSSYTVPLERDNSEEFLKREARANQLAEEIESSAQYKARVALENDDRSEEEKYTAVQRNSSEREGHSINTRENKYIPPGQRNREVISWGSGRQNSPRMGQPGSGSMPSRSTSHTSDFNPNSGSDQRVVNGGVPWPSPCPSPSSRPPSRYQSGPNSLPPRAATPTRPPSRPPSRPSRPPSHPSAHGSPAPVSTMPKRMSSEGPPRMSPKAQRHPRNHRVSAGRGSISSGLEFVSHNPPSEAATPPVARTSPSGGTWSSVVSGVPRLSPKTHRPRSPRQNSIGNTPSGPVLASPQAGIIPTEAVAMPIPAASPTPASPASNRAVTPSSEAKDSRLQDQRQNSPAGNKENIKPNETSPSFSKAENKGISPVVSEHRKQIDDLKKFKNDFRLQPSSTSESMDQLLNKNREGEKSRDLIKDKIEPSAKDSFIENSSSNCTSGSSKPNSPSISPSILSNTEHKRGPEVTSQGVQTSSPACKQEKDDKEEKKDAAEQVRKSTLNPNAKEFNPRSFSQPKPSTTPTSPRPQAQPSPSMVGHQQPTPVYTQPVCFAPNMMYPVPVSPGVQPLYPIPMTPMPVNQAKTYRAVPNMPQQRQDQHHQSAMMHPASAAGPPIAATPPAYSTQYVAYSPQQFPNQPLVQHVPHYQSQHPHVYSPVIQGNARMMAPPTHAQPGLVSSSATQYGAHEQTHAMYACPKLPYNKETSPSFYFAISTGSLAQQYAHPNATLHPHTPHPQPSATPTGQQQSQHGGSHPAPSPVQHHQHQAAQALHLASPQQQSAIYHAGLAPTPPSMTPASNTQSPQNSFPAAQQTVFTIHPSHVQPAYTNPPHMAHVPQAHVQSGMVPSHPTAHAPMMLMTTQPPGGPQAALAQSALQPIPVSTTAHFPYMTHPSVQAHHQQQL
UniProt Q70E73: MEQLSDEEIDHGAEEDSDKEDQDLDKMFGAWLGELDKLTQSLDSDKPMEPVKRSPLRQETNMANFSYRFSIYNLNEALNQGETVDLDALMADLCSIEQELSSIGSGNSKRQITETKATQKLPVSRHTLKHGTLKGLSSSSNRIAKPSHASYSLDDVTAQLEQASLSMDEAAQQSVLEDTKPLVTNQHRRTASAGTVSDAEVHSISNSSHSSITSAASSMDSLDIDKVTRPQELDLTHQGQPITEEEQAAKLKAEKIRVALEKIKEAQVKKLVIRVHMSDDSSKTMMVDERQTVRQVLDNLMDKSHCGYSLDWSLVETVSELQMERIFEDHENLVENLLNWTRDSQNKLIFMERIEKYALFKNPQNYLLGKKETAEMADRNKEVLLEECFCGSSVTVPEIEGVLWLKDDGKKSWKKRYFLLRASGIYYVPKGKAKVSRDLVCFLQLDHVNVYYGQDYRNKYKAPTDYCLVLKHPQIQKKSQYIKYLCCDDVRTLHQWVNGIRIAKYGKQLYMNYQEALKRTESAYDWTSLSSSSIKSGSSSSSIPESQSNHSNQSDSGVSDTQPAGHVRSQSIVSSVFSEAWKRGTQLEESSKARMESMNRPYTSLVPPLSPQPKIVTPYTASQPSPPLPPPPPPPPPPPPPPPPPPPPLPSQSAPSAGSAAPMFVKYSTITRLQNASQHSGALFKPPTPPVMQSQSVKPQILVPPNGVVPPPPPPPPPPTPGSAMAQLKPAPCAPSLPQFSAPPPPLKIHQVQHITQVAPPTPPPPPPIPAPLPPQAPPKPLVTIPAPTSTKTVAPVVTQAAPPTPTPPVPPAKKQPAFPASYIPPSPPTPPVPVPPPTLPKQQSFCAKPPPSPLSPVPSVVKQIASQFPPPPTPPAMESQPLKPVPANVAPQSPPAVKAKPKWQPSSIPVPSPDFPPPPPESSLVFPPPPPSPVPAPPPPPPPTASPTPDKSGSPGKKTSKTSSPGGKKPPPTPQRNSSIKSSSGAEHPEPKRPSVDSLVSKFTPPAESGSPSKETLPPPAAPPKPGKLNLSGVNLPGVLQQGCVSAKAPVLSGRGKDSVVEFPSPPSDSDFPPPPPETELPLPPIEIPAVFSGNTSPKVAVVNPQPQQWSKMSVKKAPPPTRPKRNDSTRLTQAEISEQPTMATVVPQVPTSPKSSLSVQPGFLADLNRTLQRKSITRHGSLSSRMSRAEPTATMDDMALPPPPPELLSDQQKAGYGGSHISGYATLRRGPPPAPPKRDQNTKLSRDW
UniProt Q8IU81: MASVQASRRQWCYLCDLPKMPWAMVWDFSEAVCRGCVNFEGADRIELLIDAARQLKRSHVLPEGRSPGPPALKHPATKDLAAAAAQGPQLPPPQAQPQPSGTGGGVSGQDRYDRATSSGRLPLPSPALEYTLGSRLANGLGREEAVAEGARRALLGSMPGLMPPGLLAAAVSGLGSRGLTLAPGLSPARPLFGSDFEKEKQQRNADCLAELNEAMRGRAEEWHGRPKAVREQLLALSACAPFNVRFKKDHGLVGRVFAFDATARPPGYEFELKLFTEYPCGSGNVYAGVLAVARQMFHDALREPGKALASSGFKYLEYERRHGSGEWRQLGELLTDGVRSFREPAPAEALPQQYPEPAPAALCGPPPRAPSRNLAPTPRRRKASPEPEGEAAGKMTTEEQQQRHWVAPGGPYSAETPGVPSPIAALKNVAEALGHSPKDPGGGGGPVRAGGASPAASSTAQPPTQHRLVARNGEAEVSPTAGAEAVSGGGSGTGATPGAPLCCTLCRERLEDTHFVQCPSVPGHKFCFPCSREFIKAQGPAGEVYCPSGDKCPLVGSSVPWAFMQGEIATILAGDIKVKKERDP
UniProt Q96CW5: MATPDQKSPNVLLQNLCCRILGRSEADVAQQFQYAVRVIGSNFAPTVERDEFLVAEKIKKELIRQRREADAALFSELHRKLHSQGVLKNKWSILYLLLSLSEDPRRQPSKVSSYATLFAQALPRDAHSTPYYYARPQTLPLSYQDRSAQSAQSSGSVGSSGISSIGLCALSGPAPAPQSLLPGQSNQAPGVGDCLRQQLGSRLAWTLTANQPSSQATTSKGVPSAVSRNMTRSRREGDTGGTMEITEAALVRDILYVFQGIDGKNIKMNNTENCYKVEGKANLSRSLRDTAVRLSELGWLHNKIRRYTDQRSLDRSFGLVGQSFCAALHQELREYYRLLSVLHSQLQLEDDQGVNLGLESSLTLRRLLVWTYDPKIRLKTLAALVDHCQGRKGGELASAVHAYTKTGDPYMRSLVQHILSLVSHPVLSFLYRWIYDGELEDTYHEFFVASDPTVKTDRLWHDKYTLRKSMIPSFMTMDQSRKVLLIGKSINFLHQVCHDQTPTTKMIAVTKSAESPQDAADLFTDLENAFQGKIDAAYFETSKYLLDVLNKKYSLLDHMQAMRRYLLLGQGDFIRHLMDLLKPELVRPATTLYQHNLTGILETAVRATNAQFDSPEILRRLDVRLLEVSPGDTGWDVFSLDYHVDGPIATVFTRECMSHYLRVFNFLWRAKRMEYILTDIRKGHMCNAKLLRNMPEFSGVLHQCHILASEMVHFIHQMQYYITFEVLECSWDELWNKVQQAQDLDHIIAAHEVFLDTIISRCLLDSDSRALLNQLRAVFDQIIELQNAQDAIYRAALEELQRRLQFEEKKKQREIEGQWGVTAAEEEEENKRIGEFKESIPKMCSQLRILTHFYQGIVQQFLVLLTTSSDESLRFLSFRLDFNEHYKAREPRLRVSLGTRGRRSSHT
UniProt Q9BSJ2: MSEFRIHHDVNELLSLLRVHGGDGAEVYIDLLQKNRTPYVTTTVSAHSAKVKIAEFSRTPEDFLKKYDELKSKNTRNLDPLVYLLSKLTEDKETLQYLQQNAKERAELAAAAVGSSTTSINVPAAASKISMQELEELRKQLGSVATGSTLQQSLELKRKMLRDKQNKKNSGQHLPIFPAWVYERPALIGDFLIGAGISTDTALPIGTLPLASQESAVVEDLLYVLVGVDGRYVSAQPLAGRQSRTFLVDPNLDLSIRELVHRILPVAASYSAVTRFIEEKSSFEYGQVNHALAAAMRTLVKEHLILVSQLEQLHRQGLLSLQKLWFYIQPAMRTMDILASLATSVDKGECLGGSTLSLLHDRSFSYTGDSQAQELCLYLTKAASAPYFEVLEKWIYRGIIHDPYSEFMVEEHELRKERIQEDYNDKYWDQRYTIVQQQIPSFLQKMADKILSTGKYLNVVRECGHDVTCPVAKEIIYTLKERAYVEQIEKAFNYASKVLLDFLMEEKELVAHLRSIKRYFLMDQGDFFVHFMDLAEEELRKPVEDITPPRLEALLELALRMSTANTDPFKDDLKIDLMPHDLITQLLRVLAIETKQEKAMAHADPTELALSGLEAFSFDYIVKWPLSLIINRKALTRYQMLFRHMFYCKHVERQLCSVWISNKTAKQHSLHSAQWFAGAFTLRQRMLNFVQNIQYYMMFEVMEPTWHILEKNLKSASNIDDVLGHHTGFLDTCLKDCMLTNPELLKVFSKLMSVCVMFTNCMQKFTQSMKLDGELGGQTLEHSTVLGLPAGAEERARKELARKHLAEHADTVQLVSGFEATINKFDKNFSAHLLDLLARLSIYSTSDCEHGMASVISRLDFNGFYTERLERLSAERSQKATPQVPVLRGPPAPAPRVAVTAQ

target: GST-fusion SH3A domain of Ruk/CIN85 (UniProt Q96B97); assay: affinity purification with mass spectrometry; GST-fusion SH3 domain (about 10 μg on 40 μl Glutathione Sepharose 4B) incubated 4 h at 4°C with HeLa lysate pre-cleared on GST beads; 20 mM Tris pH 7.5, 150 mM NaCl, 5 mM EDTA, 5% glycerol, 0.5% Triton X-100 (washes 0.1%); SDS-PAGE, in-gel trypsin digestion, LC-MS/MS; hits also found with GST alone removed; only the target purified

binding	Molecule
binds	Atx2 (from UniProt Q99700 1-1313)
binds	Lamellipodin (from UniProt Q70E73 1-1250)
binds	IRF2-BP1 (from UniProt Q8IU81 1-584)
binds	GCP3 (from UniProt Q96CW5 1-907)
binds	GCP2 (from UniProt Q9BSJ2 1-902)
binds	CFBP (from UniProt Q96EY5 1-273)

target: GST-fusion SH3C domain of Ruk/CIN85 (UniProt Q96B97); assay: as above

binding	Molecule
binds	PEPP-2 (protein, UniProt Q9HAU0 1-1116) MAADLNLEWISLPRSWTYGITRGGRVFFINEEAKSTTWLHPVTGEAVVTGHRRQSTDLPTGWEEAYTFEGARYYINHNERKVTCKHPVTGQPSQDNCIFVVNEQTVATMTSEEKKERPISMINEASNYNVTSDYAVHPMSPVGRTSRASKKVHNFGKRSNSIKRNPNAPVVRRGWLYKQDSTGMKLWKKRWFVLSDLCLFYYRDEKEEGILGSILLPSFQIALLTSEDHINRKYAFKAAHPNMRTYYFCTDTGKEMELWMKAMLDAALVQTEPVKRVDKITSENAPTKETNNIPNHRVLIKPEIQNNQKNKEMSKIEEKKALEAEKYGFQKDGQDRPLTKINSVKLNSLPSEYESGSACPAQTVHYRPINLSSSENKIVNVSLADLRGGNRPNTGPLYTEADRVIQRTNSMQQLEQWIKIQKGRGHEEETRGVISYQTLPRNMPSHRAQIMARYPEGYRTLPRNSKTRPESICSVTPSTHDKTLGPGAEEKRRSMRDDTMWQLYEWQQRQFYNKQSTLPRHSTLSSPKTMVNISDQTMHSIPTSPSHGSIAAYQGYSPQRTYRSEVSSPIQRGDVTIDRRHRAHHPKHVYVPDRRSVPAGLTLQSVSPQSLQGKTLSQDEGRGTLYKYRPEEVDIDAKLSRLCEQDKVVHALEEKLQQLHKEKYTLEQALLSASQEIEMHADNPAAIQTVVLQRDDLQNGLLSTCRELSRATAELERAWREYDKLEYDVTVTRNQMQEQLDHLGEVQTESAGIQRAQIQKELWRIQDVMEGLSKHKQQRGTTEIGMIGSKPFSTVKYKNEGPDYRLYKSEPELTTVAEVDESNGEEKSEPVSEIETSVVKGSHFPVGVVPPRAKSPTPESSTIASYVTLRKTKKMMDLRTERPRSAVEQLCLAESTRPRMTVEEQMERIRRHQQACLREKKKGLNVIGASDQSPLQSPSNLRDNPFRTTQTRRRDDKELDTAIRENDVKPDHETPATEIVQLKETEPQNVDFSKELKKTENISYEMLFEPEPNGVNSVEMMDKERNKDKMPEDVTFSPQDETQTANHKPEEHPEENTKNSVDEQEETVISYESTPEVSRGNQTMAVKSLSPSPESSASPVPSTQPQLTEGSHFMCV
binds	RASAL2 (protein, UniProt Q9UJF2 1-1139) MQTPEVPAERSPRRRSISGTSTSEKPNSMDTANTSPFKVPGFFSKRLKGSIKRTKSQSKLDRNTSFRLPSLRSTDDRSRGLPKLKESRSHESLLSPCSTVECLDLGRGEPVSVKPLHSSILGQDFCFEVTYLSGSKCFSCNSASERDKWMENLRRTVQPNKDNCRRAENVLRLWIIEAKDLAPKKKYFCELCLDDTLFARTTSKTKADNIFWGEHFEFFSLPPLHSITVHIYKDVEKKKKKDKNNYVGLVNIPTASVTGRQFVEKWYPVSTPTPNKGKTGGPSIRIKSRFQTITILPMEQYKEFAEFVTSNYTMLCSVLEPVISVRNKEELACALVHILQSTGRAKDFLTDLVMSEVDRCGEHDVLIFRENTIATKSIEEYLKLVGQQYLHDALGEFIKALYESDENCEVDPSKCSSSELIDHQSNLKMCCELAFCKIINSYCVFPRELKEVFASWKQQCLNRGKQDISERLISASLFLRFLCPAIMSPSLFNLMQEYPDDRTSRTLTLIAKVIQNLANFAKFGNKEEYMAFMNDFLEHEWGGMKRFLLEISNPDTISNTPGFDGYIDLGRELSVLHSLLWEVVSQLDKGENSFLQATVAKLGPLPRVLADITKSLTNPTPIQQQLRRFTEHNSSPNVSGSLSSGLQKIFEDPTDSDLHKLKSPSQDNTDSYFRGKTLLLVQQASSQSMTYSEKDERESSLPNGRSVSLMDLQDTHAAQVEHASVMLDVPIRLTGSQLSITQVASIKQLRETQSTPQSAPQVRRPLHPALNQPGGLQPLSFQNPVYHLNNPIPAMPKASIDSSLENLSTASSRSQSNSEDFKLSGPSNSSMEDFTKRSTQSEDFSRRHTVPDRHIPLALPRQNSTGQAQIRKVDQGGLGARAKAPPSLPHSASLRSTGSMSVVSAALVAEPVQNGSRSRQQSSSSRESPVPKVRAIQRQQTQQVQSPVDSATMSPVERTAAWVLNNGQYEEDVEETEQNLDEAKHAEKYEQEITKLKERLRVSSRRLEEYERRLLVQEQQMQKLLLEYKARLEDSEERLRRQQEEKDSQMKSIISRLMAVEEELKKDHAEMQAVIDAKQKIIDAQEKRIVSLDSANTRLMSALTQVKERYSMQVRNGISPTNPTKLSITENGEFKNSSC
